{"source": "PubChem BioAssay AID624297", "about": "(National Center for Advancing Translational Sciences (NCATS), 2012)", "note": "Hit rate of the full screen: of about 340,000 compounds, about 6,200 (1.8%) were called active. This list was built around the results that the source calls inconclusive (neither active nor inactive); the mix of calls is not that of the screen. Calls come from the whole dose curve; as a rule, active = well fitted activation curve with a large enough effect; inconclusive = small, poorly fitted or top-dose-only effect; inactive = no such curve, though single readings can be large or run the other way. A potency beside an inconclusive call is a rough fit, not a confirmed value. Potency is the fitted concentration of half-maximal effect."}
{"experiment": "A quantitative high throughput screen for small molecules that induce DNA re-replication in SW480 colon adenocarcinoma cells; note: nearly all actives have a fitted effect of over 55% in size; for re-replication activation: % of control where 0% means no effect.", "settings": "Hoechst DNA content imaging, 48 h; re-replication activation: at 46.1 µM (top of the series) unless noted", "procedure,_shortened": "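DNA re-replication was detected as more nuclei of elevated Hoechst intensity after 48 hr exposure to compound (23 nL pinned per well of 250 cells).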"}
{"compound": "COc1ccccc1Nc1ccc(C(=O)NC2CCCCC2)cn1", "Potency": "inconclusive: 29.1 µM [activator, single point]"}
{"compound": "Cc1ccccc1-c1nc2c(s1)CCc1onc(-c3ccc(Cl)cc3)c1-2", "re-replication activation": "inactive: 1.28%"}
{"compound": "CC(C)(C)c1cc(=O)n2c(C#N)c(C#N)nc2[nH]1", "re-replication activation": "inactive: 0.0139%"}
{"compound": "CCOC(=O)c1[nH]c2ccccc2c1NC(=O)CC(C)C", "Potency": "inconclusive: 5.8 µM [activator, single point]"}
{"compound": "CCN(CC)C(=O)[C@H]1CC(CC(=O)NC/C=C(\\C)CCC=C(C)C)C(=O)N2CCc3c([nH]c4ccc(OC)cc34)[C@]12C", "note": "(stereo partly drawn)", "Potency": "inconclusive: 14.6 µM [activator, partial curve, poor fit]"}
{"compound": "CCC(C)C(NC(=O)c1ccc(Cl)cc1)C(=O)Nc1cccnc1", "note": "(stereo not drawn)", "Potency": "inconclusive: 25.9 µM [activator, single point]"}
{"compound": "CCOc1ccc(C(C)=O)cc1COC(=O)c1cc([N+](=O)[O-])ccc1N1CCOCC1", "re-replication activation": "inactive: -2.01%"}
{"compound": "O=C(NCCc1ccccc1)C(=O)NCC1CCCN1S(=O)(=O)c1cccs1", "note": "(stereo not drawn)", "Potency": "inconclusive: 29.1 µM [activator, single point]"}
{"compound": "COc1ccc(CNC(=O)c2ccc[nH]2)cc1", "re-replication activation": "inactive: -0.455%"}
{"compound": "Cc1cc(NC(=O)CSc2nc3sc4c(c3c(=O)n2C)CCCC4)no1", "re-replication activation": "inactive: 17.1%"}
{"compound": "Cc1nc2scc(-c3cccs3)c2c(=O)n1CC(=O)O", "re-replication activation": "inactive: -2.3%"}
{"compound": "Cc1cc2c(cc1C)C(c1cccc(F)c1)CC(=O)N2", "note": "(stereo not drawn)", "Potency": "inconclusive: 29.1 µM [activator, single point]"}
{"compound": "CC(=O)Oc1ccc(N(C(C)=O)S(=O)(=O)c2ccc3ccccc3c2)cc1", "re-replication activation": "inactive: -9.69%"}
{"compound": "O=C(NCC1CCCC(CNC(=O)Nc2ccc(Cl)cn2)C1)Nc1ccc(Cl)cn1", "note": "(stereo not drawn)", "Potency": "inconclusive: 16.4 µM [activator, single point]"}
{"compound": "Cn1nnnc1SCc1ccc(Cl)cc1", "re-replication activation": "inactive: -5.5%"}
{"compound": "CCN(CC)S(=O)(=O)c1cc(C(=O)Nc2cc(C)on2)ccc1Cl", "re-replication activation": "inactive: -6.77%"}
{"compound": "CCN(CC(=O)Nc1c(F)cccc1F)C(=O)CNC(=O)c1sc2ccccc2c1Cl", "Potency": "inconclusive: 29.1 µM [activator, single point]"}
{"compound": "CCC(CC)n1c(C)cc(=O)n1C(CC)CC", "re-replication activation": "inactive: -0.923%"}
{"compound": "COc1ccc(CNC(=O)CN(Cc2ccccc2)C(=O)CCC(=O)Nc2ccccn2)cc1", "re-replication activation": "inactive: -10.3%"}
{"compound": "Cc1cccc(OCC(=O)Nc2ccccc2N2CCCC2)c1C", "Potency": "inconclusive: 18.4 µM [activator, single point]"}
{"compound": "O=C(Nc1ccc(-c2cccc(F)c2)cc1)C1CCCN(Cc2ccccn2)C1", "note": "(stereo not drawn)", "Potency": "inconclusive: 23.1 µM [activator, single point]"}
{"compound": "CN(Cc1nccs1)C(=O)c1ccc2nc(Cc3ccccc3F)oc2c1", "re-replication activation": "inactive: 1.97%"}
{"compound": "Cc1nc(C)c(-c2csc(NCc3ccco3)n2)s1", "re-replication activation": "inactive: 7.54%"}
{"compound": "COc1ccc(C(CC(=O)c2ccc(C)cc2)Nc2ccc([N+](=O)[O-])cc2)cc1", "note": "(stereo not drawn)", "re-replication activation": "inactive: 15.6%"}
{"compound": "CCOC(=O)COc1cc(N2C(=O)CSCC2=O)c(Cl)cc1Cl", "re-replication activation": "inactive: -1.04%"}
{"compound": "CCc1cc(Cl)c(OC)c(C(=O)NC[C@@H]2CCCN2CC)c1O", "Potency": "inactive"}
{"compound": "CC(C)c1cc(C(=O)NC2CCCc3c2cnn3-c2ccccc2F)no1", "note": "(stereo not drawn)", "re-replication activation": "inactive: 2.34%"}
{"compound": "CC(=O)NC1=NN(C(C)=O)C(c2sccc2C)S1", "note": "(stereo not drawn)", "Potency": "inconclusive: 36.6 µM [activator, partial curve, poor fit]"}
{"compound": "CCN1CCN(c2cc(C)c3cc(NC(=O)CCC(=O)N4CCN(c5ccccc5)CC4)ccc3n2)CC1", "Potency": "inconclusive: 20.6 µM [activator, single point]"}
{"compound": "CC(=O)c1cccc(NC(=O)c2c(-c3c(F)cccc3Cl)noc2C)c1", "re-replication activation": "inactive: -5.9%"}
{"compound": "COc1ccc(NC(=O)CC2Nc3cccc4cccc(c34)NC2=O)cc1", "note": "(stereo not drawn)", "re-replication activation": "inactive: 2.08%"}
{"compound": "O=C(CSc1ncccc1C(=O)O)c1cccc(C(F)(F)F)c1", "re-replication activation": "inactive: 1.88%"}
{"compound": "O=C(CN1CCCCCCC1)N/N=C/c1ccc([N+](=O)[O-])o1", "Potency": "inconclusive: 20.6 µM [activator, single point]"}
{"compound": "O=C(N/N=C/c1ccco1)C1CC1c1ccccc1", "note": "(stereo not drawn)", "re-replication activation": "inactive: -1.94%"}
{"compound": "Cc1cc(C(=O)N/N=C2\\CC(=O)CC(C)(C)C2)c2ccccc2n1", "Potency": "inconclusive: 7.31 µM [activator, partial curve, poor fit]"}
{"compound": "Cc1c(C(=O)N(C)CCC#N)oc2ccc(S(=O)(=O)N3CC(C)CC(C)C3)cc12", "note": "(stereo not drawn)", "re-replication activation": "inactive: -6.19%"}
{"compound": "Cn1cc(C(=O)N/N=C/c2ccc([N+](=O)[O-])cc2)c2ccccc21", "Potency": "inconclusive: 6.51 µM [activator, partial curve, poor fit]"}
{"compound": "O=C(Cn1cnc2ccccc2c1=O)N(Cc1ccco1)c1ccc(O)cc1", "Potency": "inconclusive: 29.1 µM [activator, single point]"}
{"compound": "O=C(COC(=O)c1ccc([N+](=O)[O-])o1)NC1CCCCC1", "Potency": "inconclusive: 0.0041 µM [activator, full curve, poor fit]"}
{"compound": "COc1ccccc1-n1cnc2cc(NCc3ccccn3)ccc21", "Potency": "inconclusive: 23.1 µM [activator, single point]"}
{"compound": "O=C(COc1ccc(Cl)cc1Cl)Nc1ccc(Cl)cn1", "re-replication activation": "inactive: -2.28%"}
{"compound": "Cc1ccc(SCc2nc(N)nc(Nc3ccccc3C)n2)c(C)c1", "Potency": "inconclusive: 18.4 µM [activator, partial curve, poor fit]"}
{"compound": "Cc1ccccc1-n1sc2cc(F)ccc2c1=O", "Potency": "inconclusive: 5.17 µM [activator, partial curve, poor fit]"}
{"compound": "O=C1c2cnc3nc(SCc4cccc(Cl)c4)nn3c2CC2c3ccccc3CCN12", "note": "(stereo not drawn)", "Potency": "active: 2.59 µM"}
{"compound": "CC(Sc1ncnc2sc(-c3ccccc3)cc12)C(=O)NCC1CCCO1", "note": "(stereo not drawn)", "Potency": "inconclusive: 18.4 µM [activator, single point]"}
{"compound": "COc1ccc(OC)c(-c2cc(C(=O)Nc3c(C)nn(Cc4ccc(Cl)cc4)c3C)no2)c1", "Potency": "inconclusive: 29.1 µM [activator, partial curve, poor fit]"}
{"compound": "CCNC(=O)NC(=O)C(C)OC(=O)c1ccc(-n2nc(SC)sc2=S)cc1", "note": "(stereo not drawn)", "Potency": "inconclusive: 0.92 µM [activator, partial curve, poor fit]"}
{"compound": "COc1ccccc1NC(=O)N1CCCC1C(=O)NCC1CCCO1", "note": "(stereo not drawn)", "Potency": "inconclusive: 0.164 µM [activator, full curve, poor fit]"}
